Reference: article PMC3514159
No constants are given. Whether binding was seen depends on the method and setting. Some results given as binding are weak or reduced against the parent protein; the word gives no strength.

Amino acid sequences for entries named in this document (tags omitted).
UniProt Q96G97: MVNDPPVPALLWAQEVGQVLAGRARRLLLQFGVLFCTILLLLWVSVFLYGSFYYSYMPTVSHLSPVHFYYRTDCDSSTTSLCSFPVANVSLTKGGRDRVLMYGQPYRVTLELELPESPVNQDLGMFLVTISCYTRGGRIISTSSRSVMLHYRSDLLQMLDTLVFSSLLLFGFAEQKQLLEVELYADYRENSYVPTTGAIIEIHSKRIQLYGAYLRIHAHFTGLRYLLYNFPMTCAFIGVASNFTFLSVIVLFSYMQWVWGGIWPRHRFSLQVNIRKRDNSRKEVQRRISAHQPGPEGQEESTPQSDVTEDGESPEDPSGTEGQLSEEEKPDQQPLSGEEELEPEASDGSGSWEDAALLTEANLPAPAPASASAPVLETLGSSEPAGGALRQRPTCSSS
UniProt O95967: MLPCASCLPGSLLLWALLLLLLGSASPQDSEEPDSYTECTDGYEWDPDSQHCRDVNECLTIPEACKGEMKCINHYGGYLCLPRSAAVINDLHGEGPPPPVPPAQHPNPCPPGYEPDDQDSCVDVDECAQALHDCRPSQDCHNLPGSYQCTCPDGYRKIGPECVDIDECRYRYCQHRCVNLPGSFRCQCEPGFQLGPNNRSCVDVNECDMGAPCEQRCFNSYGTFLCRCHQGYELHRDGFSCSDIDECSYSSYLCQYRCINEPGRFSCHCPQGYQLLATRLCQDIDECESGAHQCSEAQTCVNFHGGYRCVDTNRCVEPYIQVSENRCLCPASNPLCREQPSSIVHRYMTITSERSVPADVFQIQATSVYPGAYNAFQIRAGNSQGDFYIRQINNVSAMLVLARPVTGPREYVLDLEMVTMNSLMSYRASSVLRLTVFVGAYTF
UniProt Q9UKS7: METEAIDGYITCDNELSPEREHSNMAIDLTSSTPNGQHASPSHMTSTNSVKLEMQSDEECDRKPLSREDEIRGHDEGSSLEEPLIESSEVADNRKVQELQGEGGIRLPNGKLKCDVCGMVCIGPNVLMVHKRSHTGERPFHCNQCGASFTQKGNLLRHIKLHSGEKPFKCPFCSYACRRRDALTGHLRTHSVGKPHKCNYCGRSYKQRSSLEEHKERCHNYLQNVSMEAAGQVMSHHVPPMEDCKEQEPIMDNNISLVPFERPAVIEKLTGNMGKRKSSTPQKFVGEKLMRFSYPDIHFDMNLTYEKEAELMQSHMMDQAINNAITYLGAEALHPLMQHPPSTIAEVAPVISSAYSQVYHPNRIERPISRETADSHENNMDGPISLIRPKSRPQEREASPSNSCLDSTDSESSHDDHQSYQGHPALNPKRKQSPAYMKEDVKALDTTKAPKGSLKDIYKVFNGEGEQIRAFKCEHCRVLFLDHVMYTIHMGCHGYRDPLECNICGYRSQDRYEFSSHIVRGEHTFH
UniProt P48059: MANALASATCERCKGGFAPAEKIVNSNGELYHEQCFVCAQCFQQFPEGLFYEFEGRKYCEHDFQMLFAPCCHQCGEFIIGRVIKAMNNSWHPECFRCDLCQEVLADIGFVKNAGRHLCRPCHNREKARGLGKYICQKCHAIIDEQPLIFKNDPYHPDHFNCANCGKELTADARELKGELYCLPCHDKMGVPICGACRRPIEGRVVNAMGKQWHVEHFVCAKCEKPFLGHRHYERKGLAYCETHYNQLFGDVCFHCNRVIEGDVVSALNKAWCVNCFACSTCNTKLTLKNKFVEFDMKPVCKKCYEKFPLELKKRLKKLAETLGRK
UniProt Q99697: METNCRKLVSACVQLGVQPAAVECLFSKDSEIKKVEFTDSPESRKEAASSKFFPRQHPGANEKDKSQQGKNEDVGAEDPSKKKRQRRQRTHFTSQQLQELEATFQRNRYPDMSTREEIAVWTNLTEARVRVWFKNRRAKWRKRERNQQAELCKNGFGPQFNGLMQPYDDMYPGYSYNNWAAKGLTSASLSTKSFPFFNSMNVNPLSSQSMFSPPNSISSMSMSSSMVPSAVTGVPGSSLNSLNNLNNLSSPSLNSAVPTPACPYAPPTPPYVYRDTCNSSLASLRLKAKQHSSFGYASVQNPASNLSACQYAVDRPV
UniProt Q92824: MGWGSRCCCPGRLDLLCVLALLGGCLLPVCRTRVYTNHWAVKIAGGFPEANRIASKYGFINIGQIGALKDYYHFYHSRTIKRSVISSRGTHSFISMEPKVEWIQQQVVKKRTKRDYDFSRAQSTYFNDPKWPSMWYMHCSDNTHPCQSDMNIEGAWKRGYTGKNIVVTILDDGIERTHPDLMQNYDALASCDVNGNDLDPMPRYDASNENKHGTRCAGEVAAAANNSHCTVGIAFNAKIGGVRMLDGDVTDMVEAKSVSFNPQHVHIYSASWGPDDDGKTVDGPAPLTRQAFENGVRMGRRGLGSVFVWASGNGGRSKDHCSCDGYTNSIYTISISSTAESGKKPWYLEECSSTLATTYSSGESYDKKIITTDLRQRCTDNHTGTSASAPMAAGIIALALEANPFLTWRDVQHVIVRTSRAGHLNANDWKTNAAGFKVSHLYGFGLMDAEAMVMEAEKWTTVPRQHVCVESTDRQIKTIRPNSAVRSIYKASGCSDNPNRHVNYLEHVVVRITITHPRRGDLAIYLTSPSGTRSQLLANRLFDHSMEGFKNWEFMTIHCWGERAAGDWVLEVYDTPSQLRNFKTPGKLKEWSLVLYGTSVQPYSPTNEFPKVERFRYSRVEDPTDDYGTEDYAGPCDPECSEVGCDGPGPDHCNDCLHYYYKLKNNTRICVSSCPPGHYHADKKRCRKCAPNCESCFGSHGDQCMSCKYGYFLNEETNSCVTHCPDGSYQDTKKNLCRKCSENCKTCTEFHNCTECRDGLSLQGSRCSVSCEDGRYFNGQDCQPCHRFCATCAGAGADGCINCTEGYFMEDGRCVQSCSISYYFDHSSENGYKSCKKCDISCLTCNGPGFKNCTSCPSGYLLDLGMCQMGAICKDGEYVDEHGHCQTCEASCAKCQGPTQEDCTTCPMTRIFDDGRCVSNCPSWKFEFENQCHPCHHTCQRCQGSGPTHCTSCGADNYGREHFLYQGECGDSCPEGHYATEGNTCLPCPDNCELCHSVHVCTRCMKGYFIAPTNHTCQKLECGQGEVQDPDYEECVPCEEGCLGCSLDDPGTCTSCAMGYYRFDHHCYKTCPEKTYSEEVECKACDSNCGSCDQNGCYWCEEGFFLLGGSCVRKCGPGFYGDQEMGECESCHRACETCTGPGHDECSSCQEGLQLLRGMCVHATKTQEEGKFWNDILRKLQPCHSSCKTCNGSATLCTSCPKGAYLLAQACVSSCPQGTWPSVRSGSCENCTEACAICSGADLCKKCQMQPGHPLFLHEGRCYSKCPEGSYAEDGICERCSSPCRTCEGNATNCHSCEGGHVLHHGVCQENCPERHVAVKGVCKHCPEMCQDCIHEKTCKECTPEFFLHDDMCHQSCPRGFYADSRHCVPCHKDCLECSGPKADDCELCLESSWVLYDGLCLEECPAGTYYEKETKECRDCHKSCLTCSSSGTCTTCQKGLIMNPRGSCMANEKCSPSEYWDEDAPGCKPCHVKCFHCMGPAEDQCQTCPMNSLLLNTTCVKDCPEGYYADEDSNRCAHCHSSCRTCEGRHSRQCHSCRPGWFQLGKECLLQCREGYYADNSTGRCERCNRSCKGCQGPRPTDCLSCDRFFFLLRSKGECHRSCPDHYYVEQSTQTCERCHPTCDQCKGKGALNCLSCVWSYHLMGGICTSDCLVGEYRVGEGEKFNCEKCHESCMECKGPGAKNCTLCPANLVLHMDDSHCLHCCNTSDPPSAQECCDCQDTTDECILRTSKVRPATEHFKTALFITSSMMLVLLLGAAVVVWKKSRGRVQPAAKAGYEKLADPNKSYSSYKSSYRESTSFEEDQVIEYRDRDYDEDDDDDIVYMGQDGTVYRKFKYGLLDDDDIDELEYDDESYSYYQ
UniProt O75865: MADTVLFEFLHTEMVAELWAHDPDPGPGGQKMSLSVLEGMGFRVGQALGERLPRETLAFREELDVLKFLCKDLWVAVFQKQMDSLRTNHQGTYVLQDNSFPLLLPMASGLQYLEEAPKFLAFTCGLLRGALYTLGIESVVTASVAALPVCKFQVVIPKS
UniProt P09022: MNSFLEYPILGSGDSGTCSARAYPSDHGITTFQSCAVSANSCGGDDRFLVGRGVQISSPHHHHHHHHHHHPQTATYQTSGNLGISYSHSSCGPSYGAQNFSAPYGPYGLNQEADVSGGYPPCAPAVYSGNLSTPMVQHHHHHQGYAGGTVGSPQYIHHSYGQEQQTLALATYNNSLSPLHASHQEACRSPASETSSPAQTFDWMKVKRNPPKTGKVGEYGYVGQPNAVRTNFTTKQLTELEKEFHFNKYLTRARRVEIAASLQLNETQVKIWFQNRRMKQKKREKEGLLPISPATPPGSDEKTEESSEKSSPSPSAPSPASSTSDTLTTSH

Columns and labels:
Test in all cases: two-hybrid; AD-Hoxa1 (Gal4 activation domain) in MATa Y8800 mated with the DB-hORF library in MATα Y8930; 30°C; selection on Sc-L-T-H + 1 mM 3AT, retest on Sc-L-T-H, Sc-L-T-A and Sc-L-T-H-A+3AT
[1] = target: Berardinelli-Seip congenital lipodystrophy 2 (human) (UniProt Q96G97)
[2] = target: EGF-containing fibulin-like extracellular matrix protein 2 (human) (UniProt O95967)
[3] = target: IKAROS family zinc finger 2 (human) (UniProt Q9UKS7)
[4] = target: LIM and senescent cell antigen-like domains 1 (human) (UniProt P48059)
[5] = target: T1, SPARC related modular calcium binding 1 (human) (UniProt Q9H4F8)
T1 sequence: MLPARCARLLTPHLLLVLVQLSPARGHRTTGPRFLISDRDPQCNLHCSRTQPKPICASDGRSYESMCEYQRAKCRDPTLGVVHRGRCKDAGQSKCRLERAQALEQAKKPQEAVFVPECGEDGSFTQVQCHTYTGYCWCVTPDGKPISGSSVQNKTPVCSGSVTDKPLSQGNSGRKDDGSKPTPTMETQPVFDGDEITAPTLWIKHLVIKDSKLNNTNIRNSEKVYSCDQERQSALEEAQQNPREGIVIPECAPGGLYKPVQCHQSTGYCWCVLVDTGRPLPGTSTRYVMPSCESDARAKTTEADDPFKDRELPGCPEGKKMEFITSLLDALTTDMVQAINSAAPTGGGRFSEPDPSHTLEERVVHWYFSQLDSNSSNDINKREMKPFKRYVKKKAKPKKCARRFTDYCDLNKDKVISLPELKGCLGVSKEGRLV

[6] = target: T2, aarF domain containing kinase 4 (human) (UniProt Q96D53)
T2 sequence: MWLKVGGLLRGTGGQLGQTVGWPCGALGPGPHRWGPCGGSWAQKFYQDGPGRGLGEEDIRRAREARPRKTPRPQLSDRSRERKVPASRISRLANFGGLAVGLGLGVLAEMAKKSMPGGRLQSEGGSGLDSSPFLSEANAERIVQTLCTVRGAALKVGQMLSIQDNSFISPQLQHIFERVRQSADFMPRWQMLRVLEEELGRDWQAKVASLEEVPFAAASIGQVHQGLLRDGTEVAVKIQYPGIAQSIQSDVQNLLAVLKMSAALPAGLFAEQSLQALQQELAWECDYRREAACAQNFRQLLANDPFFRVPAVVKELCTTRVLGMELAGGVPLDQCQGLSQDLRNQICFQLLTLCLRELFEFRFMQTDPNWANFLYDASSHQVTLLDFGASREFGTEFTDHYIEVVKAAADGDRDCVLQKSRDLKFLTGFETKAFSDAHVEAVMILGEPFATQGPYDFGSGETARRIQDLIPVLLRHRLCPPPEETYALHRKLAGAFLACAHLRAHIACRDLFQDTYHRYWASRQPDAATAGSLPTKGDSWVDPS

[7] = target: T3, glycoprotein IX (platelet) (human) (UniProt P14770)
T3 sequence: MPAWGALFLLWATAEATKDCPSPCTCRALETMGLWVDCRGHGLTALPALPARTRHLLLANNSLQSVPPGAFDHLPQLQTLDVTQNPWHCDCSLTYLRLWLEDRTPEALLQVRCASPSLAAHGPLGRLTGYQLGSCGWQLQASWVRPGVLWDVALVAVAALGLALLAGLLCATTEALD

[8] = target: paired-like homeodomain 2 (human) (UniProt Q99697)
[9] = target: proprotein convertase subtilisin/kexin type 5 (human) (UniProt Q92824)
[10] = target: trafficking protein particle complex 6A (human) (UniProt O75865)

binding [1]: binds
binding [2]: binds
binding [3]: binds
binding [4]: binds
binding [5]: binds
binding [6]: binds
binding [7]: binds
binding [8]: binds
binding [9]: binds
binding [10]: binds
Substance: Hoxa1 (from UniProt P09022 1-331)
